Converted amounts (≈) assume the structure as drawn.
Test: physchem
Conditions: buffer

| Structure (SMILES) | solubility at 24 h [µM] |
| --- | --- |
| O=C(Nc1ccc(S(=O)(=O)c2cnn(C3CCOCC3)c2)cc1)[C@@H]1C[C@H]1c1cccnc1 (racemic) | 92 (≈ 41.6 µg/mL) |
| O=C(Nc1ccc(S(=O)(=O)N2CC3CCC(C2)O3)cc1)[C@@H]1C[C@H]1c1cccnc1 (mixture of isomers) | 13 |

Reference: ChEMBL document CHEMBL3124860, “Fragment-based identification of amides derived from trans-2-(pyridin-3-yl)cyclopropanecarboxylic acid as potent inhibitors of human nicotinamide phosphoribosyltransferase (NAMPT)” (J Med Chem, 2014)
